These are yes or no findings as the source states them, for the method shown. Binding seen in cells or lysates may run through a third protein. Some binding calls cover weakened binding; strength is not graded here. For some of these results: Where a sequence is shown, tags or fusion partners need not be part of it.
Assays:
[1] = biological target: HECTD1 (endogenous) (human (endogenous in HEK293T)) (UniProt Q9ULT8); assay: co-IP; endogenous HECTD1 precipitated with 4 ug anti-HECTD1 antibody on protein G Dynabeads, normal rabbit IgG as control; Triton lysis buffer, 1 h at RT; cells asynchronous or treated with Nocodazole (18 h, 50 ng/ml); immunoblot
GST-TRABID NZF 1–3 = biological target: T1, GST-TRABID NZF 1–3 (UniProt Q9UGI0); assay: pull-down; 10 ug GST-tagged bait on glutathione magnetic agarose beads, with HEK293T lysate overnight at 4 °C in 150 mM NaCl, 50 mM Tris pH 7.4, 100 uM ZnCl2, 0.1% NP-40; washed in 250 mM NaCl; cells asynchronous (DMSO or 10 uM MG132 for 6 h) or synchronised in G1, S, G2 or M; immunoblot; only the target purified
T1 sequence: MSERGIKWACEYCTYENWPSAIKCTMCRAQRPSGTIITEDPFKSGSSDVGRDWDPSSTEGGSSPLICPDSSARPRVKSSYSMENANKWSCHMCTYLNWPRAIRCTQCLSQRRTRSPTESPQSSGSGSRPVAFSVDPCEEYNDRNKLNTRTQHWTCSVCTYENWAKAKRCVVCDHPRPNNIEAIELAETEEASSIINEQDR

Protein sequences, listed by entry. Tags and fused reporters are not part of them.
UniProt Q9ULT8: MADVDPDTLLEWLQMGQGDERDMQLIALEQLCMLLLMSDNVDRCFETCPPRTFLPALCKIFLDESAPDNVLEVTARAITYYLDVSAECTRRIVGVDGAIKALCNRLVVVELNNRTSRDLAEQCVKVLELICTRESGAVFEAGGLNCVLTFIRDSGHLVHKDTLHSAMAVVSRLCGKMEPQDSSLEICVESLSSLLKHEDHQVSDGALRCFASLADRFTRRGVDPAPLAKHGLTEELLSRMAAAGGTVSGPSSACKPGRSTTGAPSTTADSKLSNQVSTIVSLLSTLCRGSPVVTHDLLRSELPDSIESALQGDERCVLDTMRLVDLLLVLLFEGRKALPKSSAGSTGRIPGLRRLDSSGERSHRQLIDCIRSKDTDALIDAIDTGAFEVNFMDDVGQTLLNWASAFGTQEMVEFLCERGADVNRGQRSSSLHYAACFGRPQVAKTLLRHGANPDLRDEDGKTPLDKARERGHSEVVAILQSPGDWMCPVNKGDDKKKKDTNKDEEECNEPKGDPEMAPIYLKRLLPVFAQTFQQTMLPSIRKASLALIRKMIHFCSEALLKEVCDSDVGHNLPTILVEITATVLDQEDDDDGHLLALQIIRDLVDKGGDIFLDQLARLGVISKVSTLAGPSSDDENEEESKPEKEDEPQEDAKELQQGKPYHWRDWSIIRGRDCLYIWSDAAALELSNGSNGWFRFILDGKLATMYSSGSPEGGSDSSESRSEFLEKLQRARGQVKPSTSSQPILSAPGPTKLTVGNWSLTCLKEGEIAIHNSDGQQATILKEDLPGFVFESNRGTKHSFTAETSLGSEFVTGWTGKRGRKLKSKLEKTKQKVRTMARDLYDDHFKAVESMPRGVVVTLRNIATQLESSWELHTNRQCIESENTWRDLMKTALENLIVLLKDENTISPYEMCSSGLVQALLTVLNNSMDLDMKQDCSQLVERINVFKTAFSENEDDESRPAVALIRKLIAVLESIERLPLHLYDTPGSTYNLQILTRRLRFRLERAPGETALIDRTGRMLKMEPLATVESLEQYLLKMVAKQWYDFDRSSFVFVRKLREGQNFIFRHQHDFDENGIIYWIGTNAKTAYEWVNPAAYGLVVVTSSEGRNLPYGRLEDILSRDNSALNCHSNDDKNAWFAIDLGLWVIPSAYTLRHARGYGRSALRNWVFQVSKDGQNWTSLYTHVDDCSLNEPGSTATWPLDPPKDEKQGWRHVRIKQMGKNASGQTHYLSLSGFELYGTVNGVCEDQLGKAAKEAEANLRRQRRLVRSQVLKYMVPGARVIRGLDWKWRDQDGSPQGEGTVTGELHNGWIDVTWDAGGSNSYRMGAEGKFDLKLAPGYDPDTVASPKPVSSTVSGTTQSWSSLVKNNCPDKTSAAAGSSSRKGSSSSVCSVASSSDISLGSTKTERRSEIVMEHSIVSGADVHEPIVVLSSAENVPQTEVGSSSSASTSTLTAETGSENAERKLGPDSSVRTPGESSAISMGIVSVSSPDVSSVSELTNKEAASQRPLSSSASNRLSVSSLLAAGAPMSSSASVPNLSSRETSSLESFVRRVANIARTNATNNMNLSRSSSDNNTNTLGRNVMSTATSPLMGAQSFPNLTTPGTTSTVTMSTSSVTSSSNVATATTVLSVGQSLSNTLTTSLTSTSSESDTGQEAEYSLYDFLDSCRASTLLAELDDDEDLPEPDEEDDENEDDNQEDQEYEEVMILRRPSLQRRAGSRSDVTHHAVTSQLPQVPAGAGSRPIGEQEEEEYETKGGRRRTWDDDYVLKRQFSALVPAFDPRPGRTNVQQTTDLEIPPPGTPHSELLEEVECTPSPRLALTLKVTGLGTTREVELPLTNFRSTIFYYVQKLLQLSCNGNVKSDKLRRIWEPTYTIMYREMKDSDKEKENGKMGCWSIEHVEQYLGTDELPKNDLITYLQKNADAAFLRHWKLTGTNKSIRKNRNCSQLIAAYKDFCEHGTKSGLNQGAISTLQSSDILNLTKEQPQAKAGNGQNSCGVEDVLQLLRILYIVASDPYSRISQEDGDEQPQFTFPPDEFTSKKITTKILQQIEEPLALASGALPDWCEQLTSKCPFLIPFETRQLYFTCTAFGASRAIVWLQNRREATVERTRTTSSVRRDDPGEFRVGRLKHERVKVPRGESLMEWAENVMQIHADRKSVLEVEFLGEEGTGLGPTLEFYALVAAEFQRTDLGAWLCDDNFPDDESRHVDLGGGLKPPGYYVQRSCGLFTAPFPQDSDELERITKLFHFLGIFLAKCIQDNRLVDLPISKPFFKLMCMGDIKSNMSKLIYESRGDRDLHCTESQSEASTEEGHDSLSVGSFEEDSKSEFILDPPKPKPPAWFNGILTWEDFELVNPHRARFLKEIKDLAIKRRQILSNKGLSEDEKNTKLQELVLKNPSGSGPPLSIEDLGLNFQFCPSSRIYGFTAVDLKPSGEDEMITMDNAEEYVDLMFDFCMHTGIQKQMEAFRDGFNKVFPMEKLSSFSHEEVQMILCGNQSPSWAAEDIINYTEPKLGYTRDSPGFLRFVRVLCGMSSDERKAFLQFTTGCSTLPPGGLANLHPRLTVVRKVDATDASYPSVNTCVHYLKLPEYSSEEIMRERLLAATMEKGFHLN
UniProt O43684: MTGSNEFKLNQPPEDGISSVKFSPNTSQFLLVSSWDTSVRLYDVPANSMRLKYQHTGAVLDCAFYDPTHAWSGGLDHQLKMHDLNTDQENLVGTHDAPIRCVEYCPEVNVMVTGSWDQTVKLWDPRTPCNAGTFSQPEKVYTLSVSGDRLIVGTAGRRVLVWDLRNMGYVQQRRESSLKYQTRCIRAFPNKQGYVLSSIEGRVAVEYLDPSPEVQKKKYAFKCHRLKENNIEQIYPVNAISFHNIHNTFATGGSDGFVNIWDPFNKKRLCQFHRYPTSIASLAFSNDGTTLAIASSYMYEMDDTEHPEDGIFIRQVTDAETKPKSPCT
UniProt O60566: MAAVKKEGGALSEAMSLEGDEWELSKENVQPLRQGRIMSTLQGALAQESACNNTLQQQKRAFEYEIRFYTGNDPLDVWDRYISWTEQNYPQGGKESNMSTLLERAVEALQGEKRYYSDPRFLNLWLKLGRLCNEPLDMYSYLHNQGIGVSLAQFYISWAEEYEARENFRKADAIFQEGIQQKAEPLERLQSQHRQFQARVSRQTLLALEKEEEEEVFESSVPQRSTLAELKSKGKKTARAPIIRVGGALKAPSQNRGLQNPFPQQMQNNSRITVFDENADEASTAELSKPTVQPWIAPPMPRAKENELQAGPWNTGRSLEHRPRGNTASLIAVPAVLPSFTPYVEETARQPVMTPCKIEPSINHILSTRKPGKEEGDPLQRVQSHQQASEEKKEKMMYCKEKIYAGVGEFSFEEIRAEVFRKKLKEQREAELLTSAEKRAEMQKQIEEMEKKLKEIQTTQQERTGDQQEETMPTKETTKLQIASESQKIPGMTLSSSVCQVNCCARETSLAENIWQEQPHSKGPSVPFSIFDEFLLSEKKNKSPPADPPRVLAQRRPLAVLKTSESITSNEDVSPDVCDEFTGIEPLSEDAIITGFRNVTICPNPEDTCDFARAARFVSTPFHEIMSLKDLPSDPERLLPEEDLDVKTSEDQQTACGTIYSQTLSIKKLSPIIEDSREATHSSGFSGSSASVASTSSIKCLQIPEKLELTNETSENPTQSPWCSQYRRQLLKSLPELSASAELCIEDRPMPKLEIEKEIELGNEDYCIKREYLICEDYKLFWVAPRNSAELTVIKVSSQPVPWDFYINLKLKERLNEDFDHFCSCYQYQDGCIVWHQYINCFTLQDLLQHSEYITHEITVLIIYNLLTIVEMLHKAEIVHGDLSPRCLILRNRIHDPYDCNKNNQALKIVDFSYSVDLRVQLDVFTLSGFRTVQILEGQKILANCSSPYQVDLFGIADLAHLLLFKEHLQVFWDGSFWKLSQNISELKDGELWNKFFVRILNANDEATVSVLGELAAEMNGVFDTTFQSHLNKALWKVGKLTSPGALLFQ
UniProt Q13257: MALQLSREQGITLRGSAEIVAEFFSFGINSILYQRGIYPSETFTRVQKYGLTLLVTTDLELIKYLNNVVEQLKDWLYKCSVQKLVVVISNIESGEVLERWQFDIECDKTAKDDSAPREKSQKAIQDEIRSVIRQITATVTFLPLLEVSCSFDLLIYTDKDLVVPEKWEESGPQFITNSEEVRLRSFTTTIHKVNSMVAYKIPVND

| binding [1] | binding (GST-TRABID NZF 1–3) | Substance |
| --- | --- | --- |
| binds | binds | BUB3 (endogenous) (from UniProt O43684 1-328) |
| no binding |  | BUBR1 (endogenous) (from UniProt O60566 1-1050) |
| no binding |  | MAD2 (endogenous) (from UniProt Q13257 1-205) |

Reference: publication PMC9343455
